Test results taken from the supplement of paper PMC7666118.
The list shows a part of the results.

Protein sequences, listed by entry. Tags and fused reporters are not part of them. Lines headed by an entry give the natural chain unless they say otherwise; changes in a name come on top.
UniProt O75390: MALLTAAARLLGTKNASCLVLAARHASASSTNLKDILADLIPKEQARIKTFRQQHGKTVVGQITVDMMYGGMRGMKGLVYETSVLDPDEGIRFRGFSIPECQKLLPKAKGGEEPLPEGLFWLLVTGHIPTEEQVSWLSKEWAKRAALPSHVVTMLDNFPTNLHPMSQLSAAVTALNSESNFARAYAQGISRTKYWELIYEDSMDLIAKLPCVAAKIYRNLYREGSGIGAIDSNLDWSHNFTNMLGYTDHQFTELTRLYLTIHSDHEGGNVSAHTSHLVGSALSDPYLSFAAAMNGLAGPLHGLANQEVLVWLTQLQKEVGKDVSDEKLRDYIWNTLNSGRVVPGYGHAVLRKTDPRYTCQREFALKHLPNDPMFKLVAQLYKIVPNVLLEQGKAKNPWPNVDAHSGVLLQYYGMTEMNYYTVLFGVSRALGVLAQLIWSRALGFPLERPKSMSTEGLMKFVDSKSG
UniProt P35606: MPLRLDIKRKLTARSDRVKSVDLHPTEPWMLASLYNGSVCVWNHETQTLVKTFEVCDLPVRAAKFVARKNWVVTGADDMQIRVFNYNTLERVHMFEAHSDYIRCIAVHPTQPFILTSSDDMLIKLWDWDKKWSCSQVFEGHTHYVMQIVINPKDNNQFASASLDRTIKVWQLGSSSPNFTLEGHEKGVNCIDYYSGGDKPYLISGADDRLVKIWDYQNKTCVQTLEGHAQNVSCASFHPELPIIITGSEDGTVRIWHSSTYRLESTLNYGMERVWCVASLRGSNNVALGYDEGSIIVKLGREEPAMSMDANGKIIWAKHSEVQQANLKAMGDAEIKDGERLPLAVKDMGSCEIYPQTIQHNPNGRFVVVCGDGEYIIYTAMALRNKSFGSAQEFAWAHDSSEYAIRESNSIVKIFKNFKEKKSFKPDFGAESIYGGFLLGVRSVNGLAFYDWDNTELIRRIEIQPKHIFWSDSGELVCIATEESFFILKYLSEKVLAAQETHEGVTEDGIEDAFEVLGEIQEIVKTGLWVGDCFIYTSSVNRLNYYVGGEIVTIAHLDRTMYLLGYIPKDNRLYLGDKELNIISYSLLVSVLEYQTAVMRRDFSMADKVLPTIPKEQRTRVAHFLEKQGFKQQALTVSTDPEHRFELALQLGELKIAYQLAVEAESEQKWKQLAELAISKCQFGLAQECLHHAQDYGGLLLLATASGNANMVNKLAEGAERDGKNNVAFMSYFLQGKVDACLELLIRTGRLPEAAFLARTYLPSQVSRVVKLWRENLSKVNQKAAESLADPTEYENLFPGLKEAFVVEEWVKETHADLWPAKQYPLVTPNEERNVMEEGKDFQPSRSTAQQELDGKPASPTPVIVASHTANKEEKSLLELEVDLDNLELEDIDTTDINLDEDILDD
UniProt P50613: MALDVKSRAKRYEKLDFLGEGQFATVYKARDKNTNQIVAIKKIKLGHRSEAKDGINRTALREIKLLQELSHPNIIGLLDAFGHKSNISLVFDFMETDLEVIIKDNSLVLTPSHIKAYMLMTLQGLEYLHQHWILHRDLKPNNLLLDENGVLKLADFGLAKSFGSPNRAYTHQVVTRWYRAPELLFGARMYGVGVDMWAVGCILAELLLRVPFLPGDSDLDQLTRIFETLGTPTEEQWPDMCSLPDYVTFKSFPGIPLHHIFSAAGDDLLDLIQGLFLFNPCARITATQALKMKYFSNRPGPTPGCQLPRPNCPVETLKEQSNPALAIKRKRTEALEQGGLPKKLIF
UniProt Q9UBF2: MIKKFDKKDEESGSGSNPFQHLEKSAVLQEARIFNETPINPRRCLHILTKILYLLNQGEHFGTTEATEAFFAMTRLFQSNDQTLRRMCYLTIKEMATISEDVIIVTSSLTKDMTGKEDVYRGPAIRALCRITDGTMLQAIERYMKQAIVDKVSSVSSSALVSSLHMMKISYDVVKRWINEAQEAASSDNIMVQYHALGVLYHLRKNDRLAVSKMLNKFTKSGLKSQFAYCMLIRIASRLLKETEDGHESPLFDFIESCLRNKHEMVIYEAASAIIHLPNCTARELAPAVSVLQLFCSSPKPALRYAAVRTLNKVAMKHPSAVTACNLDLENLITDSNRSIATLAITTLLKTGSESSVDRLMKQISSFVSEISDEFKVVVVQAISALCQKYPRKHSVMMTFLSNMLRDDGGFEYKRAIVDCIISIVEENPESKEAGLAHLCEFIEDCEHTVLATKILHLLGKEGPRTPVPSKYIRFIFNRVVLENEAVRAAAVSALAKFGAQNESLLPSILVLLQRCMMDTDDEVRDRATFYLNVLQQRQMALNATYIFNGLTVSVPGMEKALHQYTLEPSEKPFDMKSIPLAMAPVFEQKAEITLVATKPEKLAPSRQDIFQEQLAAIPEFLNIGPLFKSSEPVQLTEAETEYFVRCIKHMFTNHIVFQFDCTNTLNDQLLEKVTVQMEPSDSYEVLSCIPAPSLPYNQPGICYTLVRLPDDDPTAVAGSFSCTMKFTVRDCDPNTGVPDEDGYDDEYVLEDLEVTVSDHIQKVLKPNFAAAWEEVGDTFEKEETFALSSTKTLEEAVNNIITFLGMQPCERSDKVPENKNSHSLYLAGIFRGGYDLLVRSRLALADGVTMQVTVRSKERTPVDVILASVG
UniProt Q9H9A5, whole entry: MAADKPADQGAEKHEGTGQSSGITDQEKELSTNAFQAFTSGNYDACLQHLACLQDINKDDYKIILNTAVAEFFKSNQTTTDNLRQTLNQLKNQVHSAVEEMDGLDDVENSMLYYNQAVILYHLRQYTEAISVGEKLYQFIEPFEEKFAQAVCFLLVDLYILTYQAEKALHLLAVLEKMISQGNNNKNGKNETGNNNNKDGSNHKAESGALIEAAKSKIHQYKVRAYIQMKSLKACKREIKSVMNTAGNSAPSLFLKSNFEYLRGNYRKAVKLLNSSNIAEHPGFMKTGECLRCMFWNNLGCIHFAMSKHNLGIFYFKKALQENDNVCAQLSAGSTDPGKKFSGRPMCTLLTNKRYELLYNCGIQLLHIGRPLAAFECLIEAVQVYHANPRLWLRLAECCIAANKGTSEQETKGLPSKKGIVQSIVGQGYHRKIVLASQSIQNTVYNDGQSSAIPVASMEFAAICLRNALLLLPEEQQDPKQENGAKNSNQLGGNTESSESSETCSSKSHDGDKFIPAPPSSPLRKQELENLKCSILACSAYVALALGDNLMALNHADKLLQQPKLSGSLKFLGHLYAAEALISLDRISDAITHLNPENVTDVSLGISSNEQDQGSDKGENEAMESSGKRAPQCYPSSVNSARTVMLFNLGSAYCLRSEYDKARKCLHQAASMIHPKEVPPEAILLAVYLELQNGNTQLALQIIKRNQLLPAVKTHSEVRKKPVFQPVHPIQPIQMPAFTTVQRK
UniProt Q9NPF2: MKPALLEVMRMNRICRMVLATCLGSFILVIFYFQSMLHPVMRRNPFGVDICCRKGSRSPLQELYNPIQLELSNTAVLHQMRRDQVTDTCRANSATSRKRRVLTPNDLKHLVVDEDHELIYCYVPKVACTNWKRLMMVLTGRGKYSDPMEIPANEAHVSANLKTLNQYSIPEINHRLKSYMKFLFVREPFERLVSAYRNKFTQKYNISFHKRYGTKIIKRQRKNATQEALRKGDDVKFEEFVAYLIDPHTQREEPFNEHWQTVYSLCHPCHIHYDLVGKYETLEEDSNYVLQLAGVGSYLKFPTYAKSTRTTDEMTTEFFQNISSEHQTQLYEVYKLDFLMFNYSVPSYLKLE
UniProt Q8N4Q1: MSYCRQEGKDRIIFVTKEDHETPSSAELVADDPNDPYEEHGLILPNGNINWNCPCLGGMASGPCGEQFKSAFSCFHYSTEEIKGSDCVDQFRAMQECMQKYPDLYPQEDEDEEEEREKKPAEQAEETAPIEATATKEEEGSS
UniProt P30085: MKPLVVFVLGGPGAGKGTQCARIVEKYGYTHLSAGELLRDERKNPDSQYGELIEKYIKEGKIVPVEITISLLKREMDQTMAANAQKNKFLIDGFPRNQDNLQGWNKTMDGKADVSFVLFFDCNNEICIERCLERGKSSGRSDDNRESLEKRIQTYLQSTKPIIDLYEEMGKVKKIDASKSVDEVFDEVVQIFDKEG
UniProt Q9BT09: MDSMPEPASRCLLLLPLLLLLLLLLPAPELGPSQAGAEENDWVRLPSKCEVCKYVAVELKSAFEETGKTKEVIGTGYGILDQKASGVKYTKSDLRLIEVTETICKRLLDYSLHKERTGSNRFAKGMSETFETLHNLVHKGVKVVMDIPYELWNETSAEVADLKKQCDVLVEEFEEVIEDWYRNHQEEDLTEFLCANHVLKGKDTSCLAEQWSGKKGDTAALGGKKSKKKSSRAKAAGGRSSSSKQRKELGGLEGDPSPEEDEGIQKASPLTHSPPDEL
UniProt P61201: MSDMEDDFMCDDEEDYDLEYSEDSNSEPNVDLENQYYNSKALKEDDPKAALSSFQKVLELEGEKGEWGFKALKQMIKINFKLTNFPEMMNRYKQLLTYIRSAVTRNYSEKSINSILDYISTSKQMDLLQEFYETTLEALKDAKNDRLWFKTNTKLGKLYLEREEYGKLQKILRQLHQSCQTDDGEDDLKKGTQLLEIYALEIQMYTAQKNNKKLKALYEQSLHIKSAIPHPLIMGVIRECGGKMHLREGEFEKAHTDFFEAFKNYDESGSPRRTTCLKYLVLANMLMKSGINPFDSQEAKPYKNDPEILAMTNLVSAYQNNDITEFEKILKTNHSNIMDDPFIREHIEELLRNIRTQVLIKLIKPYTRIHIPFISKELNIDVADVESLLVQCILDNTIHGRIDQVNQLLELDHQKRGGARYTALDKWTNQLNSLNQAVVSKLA
UniProt Q9BWS9: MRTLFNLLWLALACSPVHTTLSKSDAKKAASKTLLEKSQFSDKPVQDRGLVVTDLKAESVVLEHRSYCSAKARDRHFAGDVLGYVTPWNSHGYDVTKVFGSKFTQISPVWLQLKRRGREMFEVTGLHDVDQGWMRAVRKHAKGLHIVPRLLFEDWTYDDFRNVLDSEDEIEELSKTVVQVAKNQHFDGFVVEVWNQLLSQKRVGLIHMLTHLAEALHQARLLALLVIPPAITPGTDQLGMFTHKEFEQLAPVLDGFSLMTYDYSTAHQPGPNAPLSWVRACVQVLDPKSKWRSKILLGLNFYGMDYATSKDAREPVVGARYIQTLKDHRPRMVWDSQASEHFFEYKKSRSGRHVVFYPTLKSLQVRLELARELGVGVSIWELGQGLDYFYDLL
UniProt Q99674: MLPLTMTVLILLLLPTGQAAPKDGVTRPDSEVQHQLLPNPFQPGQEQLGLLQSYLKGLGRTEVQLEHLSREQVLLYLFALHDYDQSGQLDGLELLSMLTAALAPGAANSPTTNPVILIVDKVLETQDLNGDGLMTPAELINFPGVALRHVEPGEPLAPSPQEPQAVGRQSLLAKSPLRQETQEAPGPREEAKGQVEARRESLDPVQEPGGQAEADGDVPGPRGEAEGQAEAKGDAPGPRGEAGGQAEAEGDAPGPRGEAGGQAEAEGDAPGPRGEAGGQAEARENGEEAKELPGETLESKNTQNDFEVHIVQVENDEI
UniProt Q9UJX2, whole entry: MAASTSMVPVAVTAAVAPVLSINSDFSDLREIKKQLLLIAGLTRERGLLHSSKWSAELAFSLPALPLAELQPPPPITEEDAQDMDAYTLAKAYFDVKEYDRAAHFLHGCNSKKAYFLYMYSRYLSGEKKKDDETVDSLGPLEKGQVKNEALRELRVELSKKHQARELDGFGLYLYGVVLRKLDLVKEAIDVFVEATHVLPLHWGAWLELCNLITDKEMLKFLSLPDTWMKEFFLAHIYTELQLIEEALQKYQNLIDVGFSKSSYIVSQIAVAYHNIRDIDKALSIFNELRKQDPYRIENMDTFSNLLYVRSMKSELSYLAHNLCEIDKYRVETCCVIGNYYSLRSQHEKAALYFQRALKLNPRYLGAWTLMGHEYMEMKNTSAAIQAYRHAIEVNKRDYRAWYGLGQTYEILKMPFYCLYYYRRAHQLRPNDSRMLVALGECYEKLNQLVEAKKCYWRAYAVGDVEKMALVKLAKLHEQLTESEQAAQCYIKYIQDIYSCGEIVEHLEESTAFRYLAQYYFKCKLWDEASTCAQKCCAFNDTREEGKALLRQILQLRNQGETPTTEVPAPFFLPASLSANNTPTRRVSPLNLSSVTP
UniProt Q8IUI8: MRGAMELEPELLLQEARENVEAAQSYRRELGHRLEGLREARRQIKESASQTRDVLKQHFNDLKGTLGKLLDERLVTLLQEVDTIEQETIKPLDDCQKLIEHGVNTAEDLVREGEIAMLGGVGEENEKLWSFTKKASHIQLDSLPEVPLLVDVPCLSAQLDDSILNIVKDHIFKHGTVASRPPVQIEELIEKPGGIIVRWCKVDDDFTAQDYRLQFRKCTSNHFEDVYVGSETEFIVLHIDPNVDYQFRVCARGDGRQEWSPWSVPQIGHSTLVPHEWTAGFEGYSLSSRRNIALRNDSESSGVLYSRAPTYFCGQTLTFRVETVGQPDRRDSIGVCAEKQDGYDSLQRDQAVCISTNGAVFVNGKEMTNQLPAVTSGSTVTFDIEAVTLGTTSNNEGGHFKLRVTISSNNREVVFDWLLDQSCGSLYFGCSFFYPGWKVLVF

compound: COc1ccc(Cn2ccc3cc(C)c(C(=O)NO)cc32)cc1; test: dose-dependent thermal stabilisation call (2D-TPP, DLPTP, 10% FDR) (binary (1 = stabilised)); higher = stabilised by the compound; settings: system: HL-60 intact cells; concentration range 0.04-10 µM
Method: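 2D thermal proteome profiling in intact HL-60 cells treated with BRD-3811 (0, 0.04, 0.29, 2, 10 uM) for 90 min at 37 C, then heated 3 min at one of 12 temperatures (42-63.9 C). Soluble protein was quantified by TMT10 MS. The value is the DLPTP call of the paper: dose-dependent thermal stabilisation over all temperatures at 10% FDR (F-test of a dose-response against a flat model); one experiment, one call per tested protein.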

Target	dose-dependent thermal stabilisation call
CS (UniProt O75390)	active: 1
CHD1L (UniProt Q86WJ1)	inactive: 0
CHMP7 (UniProt Q8WUX9)	inactive: 0
CORO7 (UniProt P57737)	inactive: 0
CDK5RAP2 (UniProt Q96SN8)	inactive: 0
COPB2 (UniProt P35606)	inactive: 0
CDK7 (UniProt P50613)	inactive: 0
CDC2 (UniProt P06493)	inactive: 0
CIAPIN1 (UniProt Q6FI81)	inactive: 0
CDCA3 (UniProt Q99618)	inactive: 0
COPG2 (UniProt Q9UBF2)	inactive: 0
CEP290 (UniProt O15078)	inactive: 0
CNOT10 (UniProt Q9H9A5)	inactive: 0
CHST11 (UniProt Q9NPF2)	inactive: 0
CHCHD4 (UniProt Q8N4Q1)	inactive: 0
CLINT1 (UniProt Q14677)	inactive: 0
COPS4 (UniProt Q9BT78)	inactive: 0
CETN3 (UniProt O15182)	inactive: 0
CORO1C (UniProt Q9ULV4)	inactive: 0
CMPK1 (UniProt P30085)	inactive: 0

Another view of some results above.

| Target | dose-dependent thermal stabilisation call |
| --- | --- |
| COPS4 (UniProt Q9BT78) | inactive: 0 |
| CETN3 (UniProt O15182) | inactive: 0 |

Next part

Target	dose-dependent thermal stabilisation call
CNPY3 (UniProt Q9BT09)	inactive: 0
CLPTM1 (UniProt O96005)	inactive: 0
COQ9 (UniProt O75208)	inactive: 0
CIRH1A (UniProt Q969X6)	inactive: 0
CP110 (UniProt O43303)	inactive: 0
CRNKL1 (UniProt Q9BZJ0)	inactive: 0
CDK9 (UniProt P50750)	inactive: 0
CLEC16A (UniProt Q2KHT3)	inactive: 0
COPS8 (UniProt Q99627)	inactive: 0
CIZ1 (UniProt Q9ULV3)	inactive: 0
COPS2 (UniProt P61201)	inactive: 0
COX3	inactive: 0
CHID1 (UniProt Q9BWS9)	inactive: 0
CRTC2 (UniProt Q53ET0)	inactive: 0
CLIP2 (UniProt Q9UDT6)	inactive: 0
CGREF1 (UniProt Q99674)	inactive: 0
CDC23 (UniProt Q9UJX2)	inactive: 0
CRLF3 (UniProt Q8IUI8)	inactive: 0
CDC37 (UniProt Q16543)	inactive: 0
COMMD4 (UniProt Q9H0A8)	inactive: 0
